# Experimental data from patent publication US20060257938A1, “Method of screening for drugs that block ligand binding to a lipid binding protein” (priority 2005, published 2006).
# Residue numbers refer to the chain shown, from its start.
# B1: 73F, 72A (protein, listed as Rattus norvegicus)
# chain: AFDGTWKVDRNENYEKFMEKMGINVVKRKLGAHDNLKLTITQEGNKFTVKESSNFRNIDVVFELGVDFAYSAFDGTELTGTWTMEGNKLVGKFKRVDNGKELIAVREISGNELIQTYTYEGVEAKRIFKKE
# modifications: PEPTIDE (1)...(131) wild-type rat intestinal fatty acid binding protein
# B2: 73N, 72A (protein, listed as Rattus norvegicus)
# chain: B1 chain with F73N
# modifications: PEPTIDE (1)...(131) wild-type rat intestinal fatty acid binding protein
# B3: 73R, 72A (protein, listed as Rattus norvegicus)
# chain: B1 chain with F73R
# modifications: PEPTIDE (1)...(131) wild-type rat intestinal fatty acid binding protein
# B4: 73H, 72A (protein, listed as Rattus norvegicus)
# chain: B1 chain with F73H
# modifications: PEPTIDE (1)...(131) wild-type rat intestinal fatty acid binding protein
# B5: 73V, 72A (protein, listed as Rattus norvegicus)
# chain: B1 chain with F73V
# modifications: PEPTIDE (1)...(131) wild-type rat intestinal fatty acid binding protein
# B6: 73T, 72A (protein, listed as Rattus norvegicus)
# chain: B1 chain with F73T
# modifications: PEPTIDE (1)...(131) wild-type rat intestinal fatty acid binding protein
# B7: 73K, 72A (protein, listed as Rattus norvegicus)
# chain: B1 chain with F73K
# modifications: PEPTIDE (1)...(131) wild-type rat intestinal fatty acid binding protein
# B8: 73P, 72A (protein, listed as Rattus norvegicus)
# chain: B1 chain with F73P
# modifications: PEPTIDE (1)...(131) wild-type rat intestinal fatty acid binding protein
# B9: 73Q, 72A (protein, listed as Rattus norvegicus)
# chain: B1 chain with F73Q
# modifications: PEPTIDE (1)...(131) wild-type rat intestinal fatty acid binding protein
# B10: 73L, 72A (protein, listed as Rattus norvegicus)
# chain: B1 chain with F73L
# modifications: PEPTIDE (1)...(131) wild-type rat intestinal fatty acid binding protein
# B11: 73S, 72A (protein, listed as Rattus norvegicus)
# chain: B1 chain with F73S
# modifications: PEPTIDE (1)...(131) wild-type rat intestinal fatty acid binding protein
# B12: 73G, 72A (protein, listed as Rattus norvegicus)
# chain: B1 chain with F73G
# modifications: PEPTIDE (1)...(131) wild-type rat intestinal fatty acid binding protein
# B13: 104F3, 72A (protein, listed as Rattus norvegicus)
# chain: B1 chain with F73A, A104F
# modifications: PEPTIDE (1)...(131) wild-type rat intestinal fatty acid binding protein
# Experiment: Baseline fluorescence ratio Ro of probe in absence of analyte
# Conditions: average baseline fluorescence ratio Ro of the clone probe; substitutions with respect to SEQ ID NO: 2
row,Molecule,AvgOfRo
1,B1,0.33
2,B2,0.21
3,B3,0.27
4,B4,0.11
5,B5,0.30
6,B6,0.16
7,B7,0.24
8,B8,0.15
9,B9,0.27
10,B10,0.29
11,B11,0.20
12,B12,0.22

# Same assay, conditions: baseline fluorescence ratio of probe
row,Molecule,Ro
1,B5,0.300
2,B6,0.157
3,B10,0.294

# Same assay, conditions: baseline fluorescence ratio of probe, no fatty acid
Molecule,Ro,AvgOfRo
B1,0.330,–
B5,0.300,–
B13,–,0.34
